Experimental data published in article PMC10436496.
No constants are given. Whether binding was seen depends on the method and setting. In cells and extracts the contact can be indirect. Some binding calls cover weakened binding; strength is not graded here.

Sequences of proteins named here, by UniProt entry; tags and fusion partners are left off.
UniProt P01106: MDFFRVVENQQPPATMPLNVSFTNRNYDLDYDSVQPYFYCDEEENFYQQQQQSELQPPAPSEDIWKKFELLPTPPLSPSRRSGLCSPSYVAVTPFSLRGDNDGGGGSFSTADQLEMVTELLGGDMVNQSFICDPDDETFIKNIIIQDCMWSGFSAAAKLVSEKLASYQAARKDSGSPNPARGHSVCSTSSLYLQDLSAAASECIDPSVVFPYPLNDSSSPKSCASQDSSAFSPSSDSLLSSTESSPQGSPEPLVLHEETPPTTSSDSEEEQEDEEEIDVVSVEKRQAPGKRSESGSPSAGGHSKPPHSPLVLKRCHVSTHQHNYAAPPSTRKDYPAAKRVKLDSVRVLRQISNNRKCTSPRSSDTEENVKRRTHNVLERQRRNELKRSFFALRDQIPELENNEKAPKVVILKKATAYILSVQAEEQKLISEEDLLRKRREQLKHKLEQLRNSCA

Molecular target: c-MYC, endogenous in SW48 and Lovo cells (human (endogenous in SW48 and Lovo)) (UniProt P01106)
Test: co-IP; endogenous proteins in SW48 or Lovo lysate; c-MYC antibody on Protein A/G magnetic beads, lysate rotated overnight at 4 °C, western blot

- binding: binds
B1: NEK8, endogenous in SW48 and Lovo cells (enzyme, UniProt Q86SG6 1-692)
chain: MEKYERIRVVGRGAFGIVHLCLRKADQKLVIIKQIPVEQMTKEERQAAQNECQVLKLLNHPNVIEYYENFLEDKALMIAMEYAPGGTLAEFIQKRCNSLLEEETILHFFVQILLALHHVHTHLILHRDLKTQNILLDKHRMVVKIGDFGISKILSSKSKAYTVVGTPCYISPELCEGKPYNQKSDIWALGCVLYELASLKRAFEAANLPALVLKIMSGTFAPISDRYSPELRQLVLSLLSLEPAQRPPLSHIMAQPLCIRALLNLHTDVGSVRMRRAEKSVAPSNTGSRTTSVRCRGIPRGPVRPAIPPPLSSVYAWGGGLGTPLRLPMLNTEVVQVAAGRTQKAGVTRSGRLILWEAPPLGAGGGSLLPGAVEQPQPQFISRFLEGQSGVTIKHVACGDFFTACLTDRGIIMTFGSGSNGCLGHGSLTDISQPTIVEALLGYEMVQVACGASHVLALSTERELFAWGRGDSGRLGLGTRESHSCPQQVPMPPGQEAQRVVCGIDSSMILTVPGQALACGSNRFNKLGLDHLSLGEEPVPHQQVEEALSFTLLGSAPLDQEPLLSIDLGTAHSAAVTASGDCYTFGSNQHGQLGTNTRRGSRAPCKVQGLEGIKMAMVACGDAFTVAIGAESEVYSWGKGARGRLGRRDEDAGLPRPVQLDETHPYTVTSVSCCHGNTLLAVRSVTDEPVPP
